These are yes or no findings as the source states them, for the method shown.
Biological target: ALK5 receptor complex (ALK5-Fc and TβRII-Fc) (human) (UniProt P36897+P37173)
Experiment: pull-down; ALK1-Fc or ALK5-Fc pre-incubated with TβRII-Fc, held on protein A/G Dynabeads; incubated with IL-37 (50 nmol/l) or/with TGF-β (100 nmol/l), 2 h, 4 °C; Western blot; both purified

Sequences of proteins named here, by UniProt entry; tags and fusion partners are left off. A change or cut given only in a name is not applied to a line headed by its entry.
UniProt P36897: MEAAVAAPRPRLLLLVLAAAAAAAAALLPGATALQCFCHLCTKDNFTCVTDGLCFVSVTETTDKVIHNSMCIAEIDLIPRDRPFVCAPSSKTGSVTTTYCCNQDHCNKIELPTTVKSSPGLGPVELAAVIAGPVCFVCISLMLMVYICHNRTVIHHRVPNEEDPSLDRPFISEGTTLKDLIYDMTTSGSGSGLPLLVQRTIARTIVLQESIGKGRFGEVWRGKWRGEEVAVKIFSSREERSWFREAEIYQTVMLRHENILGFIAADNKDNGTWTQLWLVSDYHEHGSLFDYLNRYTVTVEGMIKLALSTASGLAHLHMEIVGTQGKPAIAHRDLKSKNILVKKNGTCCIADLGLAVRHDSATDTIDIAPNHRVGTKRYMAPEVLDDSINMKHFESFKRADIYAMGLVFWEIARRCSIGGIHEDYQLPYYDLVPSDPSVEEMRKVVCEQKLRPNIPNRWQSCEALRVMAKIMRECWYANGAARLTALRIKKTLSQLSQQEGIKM
UniProt P37173: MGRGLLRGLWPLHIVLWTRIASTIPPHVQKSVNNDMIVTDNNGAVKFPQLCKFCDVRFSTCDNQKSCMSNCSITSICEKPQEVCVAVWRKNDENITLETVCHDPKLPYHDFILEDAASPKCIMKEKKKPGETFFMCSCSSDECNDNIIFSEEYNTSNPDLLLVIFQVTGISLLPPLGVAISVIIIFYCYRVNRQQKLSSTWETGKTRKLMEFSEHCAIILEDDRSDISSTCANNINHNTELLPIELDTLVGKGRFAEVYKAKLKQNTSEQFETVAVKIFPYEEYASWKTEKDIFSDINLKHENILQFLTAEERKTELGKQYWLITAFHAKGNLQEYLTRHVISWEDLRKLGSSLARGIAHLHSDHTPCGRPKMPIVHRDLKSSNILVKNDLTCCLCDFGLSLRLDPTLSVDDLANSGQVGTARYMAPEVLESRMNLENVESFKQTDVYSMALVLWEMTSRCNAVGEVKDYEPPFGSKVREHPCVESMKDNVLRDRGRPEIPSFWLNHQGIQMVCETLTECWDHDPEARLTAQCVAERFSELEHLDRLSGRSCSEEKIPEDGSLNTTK

binding: no binding (tested: 50 nmol/l)
B1: Recombinant human IL-37 (ligand, UniProt Q9NZH6 46-218)
chain: VHTSPKVKNLNPKKFSIHDQDHKVLVLDSGNLIAVPDKNYIRPEIFFALASSLSSASAEKGSPILLGVSKGEFCLYCDKDKGQSHPSLQLKKEKLMKLAAQKESARRPFIFYRAQVGSWNMLESAAHPGWFICTSCNCNEPVGVTDKFENRKHIEFSFQPVCKAEMSPSEVSD

— paper PMC5522482
